# Percent effect of library compounds

Protein sequences, listed by entry. Tags and fused reporters are not part of them. Residues count along the entry.
UniProt I6X8D2, whole entry: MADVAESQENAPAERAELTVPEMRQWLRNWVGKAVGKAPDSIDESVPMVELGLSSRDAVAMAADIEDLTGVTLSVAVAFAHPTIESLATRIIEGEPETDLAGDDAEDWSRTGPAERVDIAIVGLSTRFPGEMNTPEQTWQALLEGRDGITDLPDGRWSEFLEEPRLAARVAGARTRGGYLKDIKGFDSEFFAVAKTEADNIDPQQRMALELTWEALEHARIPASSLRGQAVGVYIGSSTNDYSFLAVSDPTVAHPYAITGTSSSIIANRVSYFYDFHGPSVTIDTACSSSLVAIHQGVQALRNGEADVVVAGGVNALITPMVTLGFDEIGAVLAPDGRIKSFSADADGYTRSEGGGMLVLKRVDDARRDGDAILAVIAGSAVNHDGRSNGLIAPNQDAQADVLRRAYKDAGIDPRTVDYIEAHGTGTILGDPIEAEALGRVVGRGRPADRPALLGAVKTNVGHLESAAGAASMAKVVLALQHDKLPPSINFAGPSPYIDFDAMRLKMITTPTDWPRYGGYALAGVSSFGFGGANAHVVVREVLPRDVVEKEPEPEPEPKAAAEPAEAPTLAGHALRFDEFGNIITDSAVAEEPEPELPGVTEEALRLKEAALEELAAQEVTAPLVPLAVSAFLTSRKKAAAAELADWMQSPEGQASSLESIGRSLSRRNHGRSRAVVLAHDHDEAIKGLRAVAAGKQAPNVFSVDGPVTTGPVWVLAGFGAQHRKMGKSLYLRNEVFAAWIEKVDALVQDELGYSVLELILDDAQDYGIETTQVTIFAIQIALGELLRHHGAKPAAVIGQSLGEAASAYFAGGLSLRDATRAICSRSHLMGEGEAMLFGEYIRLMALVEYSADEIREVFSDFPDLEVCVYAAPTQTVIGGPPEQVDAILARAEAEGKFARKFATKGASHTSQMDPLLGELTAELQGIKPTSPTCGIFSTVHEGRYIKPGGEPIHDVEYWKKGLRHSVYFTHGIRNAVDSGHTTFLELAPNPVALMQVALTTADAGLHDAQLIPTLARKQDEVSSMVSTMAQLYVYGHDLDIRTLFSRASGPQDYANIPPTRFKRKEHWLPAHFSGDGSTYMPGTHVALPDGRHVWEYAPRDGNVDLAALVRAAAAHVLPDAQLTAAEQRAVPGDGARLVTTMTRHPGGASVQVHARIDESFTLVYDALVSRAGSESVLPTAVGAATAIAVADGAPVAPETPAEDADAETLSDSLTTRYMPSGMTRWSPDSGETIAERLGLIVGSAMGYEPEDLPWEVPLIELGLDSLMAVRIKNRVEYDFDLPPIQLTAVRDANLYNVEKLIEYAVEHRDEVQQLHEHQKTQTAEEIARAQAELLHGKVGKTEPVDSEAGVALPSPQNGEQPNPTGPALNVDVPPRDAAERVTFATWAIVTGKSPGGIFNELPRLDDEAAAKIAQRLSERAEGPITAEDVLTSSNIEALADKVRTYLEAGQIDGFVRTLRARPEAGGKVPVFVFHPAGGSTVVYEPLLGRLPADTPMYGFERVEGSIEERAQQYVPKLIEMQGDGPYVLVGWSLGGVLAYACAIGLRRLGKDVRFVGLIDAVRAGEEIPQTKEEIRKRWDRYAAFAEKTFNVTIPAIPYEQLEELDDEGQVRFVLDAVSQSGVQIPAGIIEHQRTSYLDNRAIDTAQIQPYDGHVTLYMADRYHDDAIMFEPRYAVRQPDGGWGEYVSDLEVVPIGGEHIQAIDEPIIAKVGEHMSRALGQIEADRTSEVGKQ
UniProt P9WFT3, whole entry: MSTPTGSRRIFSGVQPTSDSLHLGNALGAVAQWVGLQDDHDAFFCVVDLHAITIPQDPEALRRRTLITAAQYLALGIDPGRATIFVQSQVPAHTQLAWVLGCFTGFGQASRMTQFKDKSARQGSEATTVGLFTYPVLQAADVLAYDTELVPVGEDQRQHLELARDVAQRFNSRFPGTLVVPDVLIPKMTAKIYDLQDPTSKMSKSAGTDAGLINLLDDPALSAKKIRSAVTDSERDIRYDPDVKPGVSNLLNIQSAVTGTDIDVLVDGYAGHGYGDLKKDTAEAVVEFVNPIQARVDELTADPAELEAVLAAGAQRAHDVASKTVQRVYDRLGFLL
UniProt P9WNZ1, whole entry: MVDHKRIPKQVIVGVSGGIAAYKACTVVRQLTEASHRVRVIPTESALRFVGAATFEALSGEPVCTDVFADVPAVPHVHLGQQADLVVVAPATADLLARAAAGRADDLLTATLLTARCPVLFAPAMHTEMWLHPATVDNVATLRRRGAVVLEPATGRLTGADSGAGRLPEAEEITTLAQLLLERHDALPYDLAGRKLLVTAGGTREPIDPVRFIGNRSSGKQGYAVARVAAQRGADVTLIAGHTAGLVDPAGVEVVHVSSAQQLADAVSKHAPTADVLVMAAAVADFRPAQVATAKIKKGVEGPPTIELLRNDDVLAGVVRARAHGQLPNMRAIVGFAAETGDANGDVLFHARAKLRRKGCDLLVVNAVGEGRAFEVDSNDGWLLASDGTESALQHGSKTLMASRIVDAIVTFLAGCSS
UniProt Q8IDJ8, 1-583: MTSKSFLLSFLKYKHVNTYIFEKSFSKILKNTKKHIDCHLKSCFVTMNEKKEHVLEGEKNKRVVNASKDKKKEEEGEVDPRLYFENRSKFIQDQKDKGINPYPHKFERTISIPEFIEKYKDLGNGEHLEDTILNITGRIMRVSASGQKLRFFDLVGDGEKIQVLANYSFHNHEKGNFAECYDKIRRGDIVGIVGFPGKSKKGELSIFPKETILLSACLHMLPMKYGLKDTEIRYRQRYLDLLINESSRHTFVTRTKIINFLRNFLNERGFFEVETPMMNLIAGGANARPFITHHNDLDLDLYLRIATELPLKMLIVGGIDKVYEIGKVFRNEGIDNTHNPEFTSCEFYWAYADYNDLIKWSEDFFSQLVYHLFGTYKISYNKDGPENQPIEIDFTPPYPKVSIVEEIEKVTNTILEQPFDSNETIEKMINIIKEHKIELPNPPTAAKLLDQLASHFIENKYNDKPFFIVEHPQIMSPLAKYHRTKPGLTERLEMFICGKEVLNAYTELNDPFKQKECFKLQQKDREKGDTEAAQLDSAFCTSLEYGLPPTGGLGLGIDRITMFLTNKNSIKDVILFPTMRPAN

Measurements from “University of Dundee, Small-Polar-MMV Screening Library” (2021), ChEMBL document CHEMBL3988442.

The filed quantity is “Percent Effect” (%). How 0% and 100% were set is not recorded. Most values in the screen are low, and negative values occur. Compounds were drawn at random from those tested, without regard to their results.

Pks13 thioesterase: 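Enzyme assay of the thioesterase domain of polyketide synthase 13; the read-out is not stated. Target: Polyketide synthase Pks13, Mycobacterium tuberculosis (UniProt I6X8D2). Concentration: 30 µM. Higher reads as stronger inhibition (inferred from which compounds were picked for retests). Size under these conditions: about 67,000 compounds, about 300 of them at 50% or above in at least one test.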
MtTrpRS: 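Tryptophan-tRNA ligase, Mycobacterium tuberculosis (UniProt P9WFT3). Enzyme assay of tryptophanyl-tRNA synthetase; the read-out is not stated. Compounds at 10 µM. Higher most likely means stronger inhibition; the record gives no direction and few retests gave an IC50. Size under these conditions: about 65,000 compounds, about 64 of them at 50% or above in at least one test.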
CoaBC: 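Enzyme assay of CoaBC with a phosphate dye (Biomol Green) read at 650 nm. Target: Coenzyme A biosynthesis protein CoaBC, Mycobacterium tuberculosis (UniProt P9WNZ1). Concentration: 30 µM. Direction is inferred from only a few compounds that gave an IC50; most scored high, so higher reads as stronger inhibition. Most strong results did not repeat in a second test. About 67,000 compounds were tested under these conditions; 0.06% (about 40) showed 50% or more at least once.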
PfKRS1: 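Lysine-tRNA ligase, Plasmodium falciparum 3D7 (UniProt Q8IDJ8). Enzyme assay of the cytosolic lysyl-tRNA synthetase in 384-well plates, read by luminescence. Concentration: 30 µM. Direction is inferred from only a few compounds that gave an IC50; most scored high, so higher reads as stronger inhibition. Of about 69,000 compounds tested this way, about 49 (0.071%) reached 50% or more in at least one test.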

Cc1cnc(CN2CCN(C(C)c3nc(C)no3)CC2)cn1 (centres undefined) read Pks13 thioesterase: -4.726%; MtTrpRS: -2.801%; CoaBC: -4.519%; PfKRS1: -3.128%.
COC(=O)N1CCN(CCCc2nnnn2-c2ccccc2)CC1 read Pks13 thioesterase: -14.34%; MtTrpRS: 17.28%; CoaBC: 11.78%; PfKRS1: -0.8357%.
CCCC(=O)N(CCCN1CCOCC1)c1nc2c(C)c(C)ccc2s1 read Pks13 thioesterase: -38.66%; MtTrpRS: -2.964%; CoaBC: 6.977%; PfKRS1: 4.244%.
Cc1cc(C)n(C2CCN(c3ncnc4c3CCNCC4)C2)n1 (centres undefined) read Pks13 thioesterase: -14.46%; MtTrpRS: 1.54%; CoaBC: -0.2358%; PfKRS1: 4.69%.
COc1ccc(CN(C)[C@@H]2CN(C(=O)c3cccs3)C[C@H]2O)cc1 read Pks13 thioesterase: -35.76%; MtTrpRS: 1.087%; CoaBC: 0.5556%; PfKRS1: 5.075%.
COc1c(CNCc2cccc(Cn3cncn3)c2)c(C)nn1C read Pks13 thioesterase: 7.567%; MtTrpRS: -1.573%; CoaBC: 7.237%; PfKRS1: -0.2247%.
COc1cccc(CN2CCC3(CCN(c4ncc(C)cn4)CC3)C2)c1 read Pks13 thioesterase: 66.72%; MtTrpRS: 0.4933%; CoaBC: -20.51%; PfKRS1: 2.581%.
Cc1ccc(C(=O)NCCCNS(C)(=O)=O)cc1C read Pks13 thioesterase: -15.86%; MtTrpRS: -0.3393%; CoaBC: 7.773%; PfKRS1: 4.448%.
CCS(=O)(=O)N1CCC(CSc2ccccc2)C1 (centres undefined) read Pks13 thioesterase: 9.933%; MtTrpRS: -1.342%; PfKRS1: -2.76%.
C[C@@H]1CN(Cc2ccoc2)C[C@]12CCN(CC(=O)N(C)C)C2=O read Pks13 thioesterase: -36.99%; MtTrpRS: -6.25%; CoaBC: 4.247%; PfKRS1: 7.404%.
CC(C)CNc1nccc(-c2cnc3sc(Cl)cn3c2=O)n1 read Pks13 thioesterase: 22.55%; CoaBC: 1.325%; PfKRS1: 1.236%.
CCS(=O)(=O)NC[C@]12COC[C@H]1CN(Cc1ccsc1)C2 read Pks13 thioesterase: 19.17%; MtTrpRS: 12.8%; CoaBC: -4.277%; PfKRS1: 3.399%.
COC[C@@]12CC[C@@H](N3CCOCC3)C[C@H]1CCN(c1ncccc1F)C2 read Pks13 thioesterase: 7.12%; MtTrpRS: -1.215%; CoaBC: 12.3%; PfKRS1: 11.49%.
Cn1ccnc1CN1C(=O)CO[C@H]2CN(Cc3ccc(F)c(F)c3)C[C@H]21 read Pks13 thioesterase: -9.441%; MtTrpRS: 2.2%; CoaBC: 8.168%; PfKRS1: 0.681%.
Cc1ncc(CC(=O)N2CCC(N3C[C@@H](C)O[C@@H](C)C3)CC2)c(=O)[nH]1 read Pks13 thioesterase: 2.307%; MtTrpRS: 11.17%; CoaBC: 2.675%; PfKRS1: -0.4251%.
Clc1cccc(CNc2cnn(CCN3CCCCC3)c2)c1 read Pks13 thioesterase: 8.272%; MtTrpRS: 0.5939%; CoaBC: 6.234%; PfKRS1: -0.8823%.
CC(C)C[C@@H]1N[C@H](C(=O)NC(C)C)Cc2c[nH]c3cccc1c23 read Pks13 thioesterase: -32.22%; MtTrpRS: -0.3794%; CoaBC: 10.82%; PfKRS1: 7.718%.
CC(C)CNC(=O)c1ccc(NC(=O)NC2CC2)cc1Cl read Pks13 thioesterase: -6.468%; MtTrpRS: -2.16%; CoaBC: 7.143%; PfKRS1: 6.986%.
CNC(=O)c1cnc(/C=C/c2cc(OC)c(O)c(OC)c2)s1 read Pks13 thioesterase: 48.61%; MtTrpRS: -3.431%; CoaBC: -2.778%; PfKRS1: 7.078%.
O=C(Cn1cc(-n2cccc2)cn1)NCC1CCC1 read Pks13 thioesterase: 5.334%; MtTrpRS: -1.295%; CoaBC: 0.5063%; PfKRS1: 2.64%.
Cc1ccc(Cn2nc(C)c3c(C(=O)O)c(Cl)c(C)nc32)cc1 read Pks13 thioesterase: -8.615%; MtTrpRS: -0.3285%; CoaBC: 2.103%; PfKRS1: 6.211%.
O=C(NCCN1CCOCC1)c1scnc1Cl read Pks13 thioesterase: -5.169%; MtTrpRS: -1.355%; CoaBC: 4.563%; PfKRS1: -0.5953%.
CC(=O)N1C[C@H](NC(=O)c2cscn2)[C@@H]2OCCC[C@@H]21 read Pks13 thioesterase: -14.12%; MtTrpRS: 4.098%; CoaBC: 7.969%; PfKRS1: 6.019%.
CC(NC(=O)c1cccs1)C(=O)Nc1cccnc1N1CCCCC1 (centres undefined) read Pks13 thioesterase: -3.699%; MtTrpRS: -2.726%; CoaBC: -30.68%; PfKRS1: 0.239%.
Cc1ccc(N2CCCC(NCC(=O)NCC3CC3)C2)nn1 (centres undefined) read Pks13 thioesterase: -9.583%; MtTrpRS: 0.8772%; CoaBC: 3.133%; PfKRS1: 0.9436%.
CNC(=O)CN1CCOCC2(CCCN(Cc3ccc(F)cc3)C2)C1 (centres undefined) read Pks13 thioesterase: -14.81%; MtTrpRS: -5.638%; CoaBC: -6.118%; PfKRS1: 2.273%.
CCSCc1cccc(NCc2cccnc2)c1 read Pks13 thioesterase: -0.6028%; MtTrpRS: 0.9266%; CoaBC: 3.851%; PfKRS1: -1.736%.

Some entries from above, unchanged:

- Cc1cc(C)n(C2CCN(c3ncnc4c3CCNCC4)C2)n1 (centres undefined) : Pks13 thioesterase: -14.46%; MtTrpRS: 1.54%; CoaBC: -0.2358%; PfKRS1: 4.69%
- Cc1cnc(CN2CCN(C(C)c3nc(C)no3)CC2)cn1 (centres undefined) : Pks13 thioesterase: -4.726%; MtTrpRS: -2.801%; CoaBC: -4.519%; PfKRS1: -3.128%